The text below walks through data of patent US20190062386A1 (UNIVERSITY OF NORTH CAROLINA AT CHAPEL HILL, published 2019).

Sequences of proteins named here, by UniProt entry; tags and fusion partners are left off.
UniProt Q96D31: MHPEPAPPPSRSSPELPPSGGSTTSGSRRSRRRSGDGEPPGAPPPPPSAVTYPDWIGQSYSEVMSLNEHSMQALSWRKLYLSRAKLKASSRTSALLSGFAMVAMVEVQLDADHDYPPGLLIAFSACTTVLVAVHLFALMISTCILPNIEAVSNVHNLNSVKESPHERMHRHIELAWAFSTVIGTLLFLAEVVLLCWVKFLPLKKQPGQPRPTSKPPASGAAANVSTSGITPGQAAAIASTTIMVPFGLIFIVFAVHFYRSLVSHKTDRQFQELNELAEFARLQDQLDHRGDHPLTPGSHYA

These are yes or no findings as the source states them, for the method shown. In cells and extracts the contact can be indirect. Some entries that bind do so weakly or less than the wild type. Where a sequence is shown, tags or fusion partners need not be part of it.

Test [1] has as its target HA tagged human Orai1 (human) (UniProt Q96D31). Briefly: co-immunoprecipitation from lysates of cotransfected HEK293T cells.
Test [2] shares this target. Briefly: co-immunoprecipitation in both directions (anti-V5, anti-HA), HEK293T lysates, immunoblot. For orientation: In western blotting, separated proteins are transferred to a membrane and probed.

B1: V5-SPLUNC1 (other, not shown: small tags and cut ends)
chain: QFGGLPVPLDQTLPLNVNPALPLSPTGLAGSLTNALSNGLLSGGLLGILENLPLLDILKPGGGTSGGLLGGLLGKVTSVIPGLNNIIDIKVTDPQLLELGLVQSPDGHRLYVTIPLGIKLQVNTPLVGASLLRLAVKLDITAEILAVRDKQERIHLVLGDCTHSPGSLQISLLDGLGPLPIQGLLDSLTGILNKVLPELVQGNVCPLVNEVLRGLDITLVHDIVNMLIHGLQFVIKV
notes: Expressed in HEK293T cells and tested in cell lysates; The tag is placed first only because the name is printed that way; also called pcDNA3.1(+)-V5-SPLUNC1
As for B1, the binding entry in test [1] and in test [2] was “binds” throughout.
